Measurements as given in PubChem BioAssay AID2685 (National Center for Advancing Translational Sciences (NCATS), 2010).
About 2,100 (0.66%) of roughly 320,000 compounds were called active. Inconclusive means that the source gave no clear call. Such entries were picked first, then a sample of the others. Calls come from the whole dose curve; as a rule, active = well fitted inhibition curve with a large enough effect in the signal ratio, with a control signal flat (not every such curve was filed as active); inconclusive = small, poorly fitted or top-dose-only effect, or effect the other way, or a change in a side signal; inactive = flat fitted curve, though single readings scatter; the % refers to the signal ratio. Where the call is inconclusive, the potency comes from a doubtful curve fit.

Test: qHTS Assay for Lipid Storage Modulators in Drosophila S3 Cells
Settings: BODIPY lipid droplet fluorescence, 18-24 h, cells fed with added oleic acid; lipid storage change, negative = inhibition: at 46.1 µM (top of the series) unless noted
Procedure, shortened: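 Drosophila S3 cells got compounds at several concentrations plus oleic acid (400 uM solution). Laser-scanning cytometry with 488 nm excitation read lipid droplets at 500-530 nm and cells at 575-640 nm. Percent activity was relative to 20 uM Triacsin C.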
% is set by controls: 0 for no effect and ±100 for the full control effect; potency is the fitted concentration of half-maximal effect.

Row | SMILES | Potency | lipid storage change, negative = inhibition
1 | O=C(Cn1nc(-c2ccc(Cl)cc2)ccc1=O)NCCN1CCOCC1 | inconclusive: 2.59 µM [falling, full curve] | 
2 | COc1cccc(NC(=O)c2cnc(SC)nc2)c1 | inconclusive: 23.1 µM [falling, single point] | 
3 | CC(=C/c1ccc(C(C)C)cc1)/C=N/NC(=O)Cn1nc(C)cc1C |  | inconclusive: -11.8%
4 | Cc1nnc(N/N=C/c2ccc(Br)cc2)n1N |  | inconclusive: -77.9%
5 | NC(=O)Nc1ccccc1C(=O)N1CCC(O)(c2ccc(Cl)cc2)CC1 |  | inconclusive: 0.322%
6 | COC(=O)c1cc(N2CCNCC2)nc2ccccc12 |  | inconclusive: -2.51%
7 | CCOC(=O)C1=C(COC(=O)CCNS(=O)(=O)c2ccc(NC(C)=O)cc2)NC(=O)NC1C (stereo not drawn) |  | inconclusive
8 | O=C(Nc1cc(=O)[nH]c2ncnn12)c1ccccc1Cl | inconclusive: 0.0046 µM [activator, full curve, poor fit] | 
9 | O=C(NCCNC(=O)c1ccc(Cl)cc1Cl)c1cnccn1 | inconclusive: 29.1 µM [cytotoxic, single point] | 
10 | COc1ccccc1NC(=O)CN1CCN(CC(=O)Nc2ccc3c(c2)OCO3)CC1 |  | inconclusive: 64.5%
11 | O=C(/C=C/c1ccc(F)cc1)NC(=S)N1CCCCC1c1cccnc1 (stereo not drawn) |  | inconclusive: 20.7%
12 | COc1ccc(OC)c(Nc2nc(N)c([N+](=O)[O-])c(NC3CCCCC3)n2)c1 |  | inconclusive: -11.2%
13 | CCC1(c2ccc(F)cc2)NC(=O)N(CC(=O)c2cc(C)n(C3CC3)c2C)C1=O (stereo not drawn) |  | inactive
14 | CC1(C)CC(=O)C2=C(C1)N(c1ccc(F)cc1)C(=O)CC2c1ccccc1 (stereo not drawn) |  | inconclusive: 17.3%
15 | CC(=O)c1cccc(Nc2ncnc3ccc(Br)cc23)c1 |  | inconclusive: -21.2%
16 | Cc1ccccc1NC(=S)Nc1ccccn1 |  | inconclusive: 1.94%
17 | CC(Oc1ccccc1)C(=O)N1CCc2ccccc2C1 (stereo not drawn) |  | inconclusive: -7.41%
18 | Cc1ccn2cc(C(=O)Nc3ccccc3N3CCOCC3)nc2c1 |  | inconclusive: 28.9%
19 | O=C(NCCS(=O)(=O)N1CCN(c2ccccc2)CC1)c1cccs1 |  | inconclusive: -32.6%
20 | C=CCNC(=S)N1CCN(CCN=CC2=C(O)CC(c3ccc(Cl)cc3)CC2=O)CC1 (stereo not drawn) |  | inconclusive: 9.34%
21 | O=C(O)Cc1ccc(NC(=O)C2CC=CCC2C(=O)O)cc1 (stereo not drawn) |  | inconclusive: 41%
22 | NS(=O)(=O)c1ccc(CCNC(=O)c2ccc3c(c2)OCO3)cc1 | active: 23.1 µM | 
23 | Nc1c(C(=O)Nc2ccccc2)c2nc3ccccc3nc2n1-c1ccc(O)cc1 |  | inconclusive: -20.8%
24 | Cc1cccc(N2CC(C(=O)Nc3nnc(SCc4cccnc4)s3)CC2=O)c1 (stereo not drawn) |  | inactive
25 | CN(CC(=O)Nc1ccc(F)cc1)C(=O)c1ccc(N2C(=O)CCC2=O)cc1 |  | inactive
26 | COc1c2ccoc2nc2c(OC)c(OCC(O)C(C)(C)O)ccc12 (stereo not drawn) | inconclusive: 25.9 µM [activator, partial curve] | 
27 | COc1cc(C(CC(=O)Nc2cc(C)ccn2)N2Cc3ccccc3C2=O)cc(OC)c1OC (stereo not drawn) |  | inconclusive: 3.07%

Row | SMILES | Potency | lipid storage change, negative = inhibition
28 | CCCCN(C(=O)c1ccc(OC(F)(F)F)cc1)c1c(N)n(CCC)c(=O)[nH]c1=O |  | inconclusive: -62.3%
29 | O=C(Nc1nc2ccccc2[nH]1)c1ccc(S(=O)(=O)N2CCOCC2)cc1 | inconclusive: 29.1 µM [rising, single point] | 
30 | CSCCC(NC(=O)c1cccc(C)c1)C(=O)OCC(=O)Nc1c(C)nn(-c2ccccc2)c1C (stereo not drawn) |  | inconclusive: -10%
31 | O=C(Nc1nn(Cc2ccccc2F)cc1Br)c1cccs1 | inconclusive: 14.6 µM [activator, partial curve] | 
32 | COc1cccc(CNS(=O)(=O)c2cc3c(cc2C)NC(=O)CO3)c1 |  | inconclusive: -4.97%
33 | CN(Cc1ccccc1)C(=O)C1CCN(S(C)(=O)=O)CC1 |  | inconclusive: 15.2%
34 | Cc1cc(S(=O)(=O)N2CCN(C(=O)c3ccco3)CC2)ccc1F |  | inconclusive: -38.1%
35 | Cn1c(SCC(N)=O)nnc1C1CCN(S(=O)(=O)c2ccccc2C(F)(F)F)CC1 |  | inconclusive: -22%
36 | CN(CCCC1CCCC1)C(=O)c1cc(COc2ccc(F)cc2F)on1 |  | inactive
37 | Cc1ccc(OCCNC(=O)C2CCCCC2)cc1 |  | inconclusive: 49.1%
38 | COc1ccc2[nH]c(CN3CCC(n4nccc4NC(=O)C4CC4)CC3)c(C)c2c1 |  | inconclusive: 2.09%
39 | Cc1ccc(C(=S)N2CCN(Cc3ccccc3)CC2)cc1 |  | inconclusive: -23.8%
40 | CCCc1cc(C(=O)NCc2ccco2)no1 | inconclusive: 1.84 µM [falling, full curve, poor fit] | 
41 | CCOC(=O)/C(=N\Nc1ncnc2ccccc12)c1ccc(OC)cc1 |  | inconclusive: -100%
42 | CCOC(=O)C1(CCCc2ccccc2)CCN(C(=O)CCn2cncn2)CC1 | inconclusive: 5.8 µM [falling, single point] | 
43 | CCOc1ccc(-n2c(SCC(N)=O)nc3c(c2=O)SCC3)cc1 |  | inconclusive: 33.9%
44 | NCCCCCNC(=O)/C=N\O |  | inconclusive: -0.0508%
45 | CC1CCc2sc(C(=O)NNC(=S)NCC3CCCO3)cc2C1 (stereo not drawn) |  | inactive
46 | COc1ccc(-c2noc(CCC(=O)Nc3cc(OC)ccc3OC)n2)cc1 |  | inconclusive: -2.09%
47 | CC(NC(=O)C(=O)N1CCOCC1)C(c1cccs1)N1CCN(c2ccccc2)CC1 (stereo not drawn) |  | inconclusive: 34.1%
48 | O=C(O)c1ccccc1Oc1ccc(Oc2ccccc2)cc1 |  | inconclusive: 114%
49 | O=C(COc1ccc(Cl)cc1)N(Cc1ccc(F)cc1)C1CCS(=O)(=O)C1 (stereo not drawn) |  | inconclusive: 6.83%
50 | COC(=O)[C@H](CCSC)NS(=O)(=O)c1ccccc1Br |  | inconclusive: -3.29%
51 | Cc1cc(C)cc(NC(=O)CSc2nc3ccccc3nc2N2CCCC2)c1 | inconclusive: 20.6 µM [falling, single point] | 
52 | Cc1ccc(N(Cc2ccccc2F)S(C)(=O)=O)cc1C | inconclusive: 0.259 µM [falling, full curve] | 
53 | O=C(Nc1ncn[nH]1)c1ccc(Cl)c(Cl)c1 |  | inconclusive: 53.5%

Sorted by length of the SMILES (descending): some entries from above
Row | SMILES | Potency | lipid storage change, negative = inhibition
7 | CCOC(=O)C1=C(COC(=O)CCNS(=O)(=O)c2ccc(NC(C)=O)cc2)NC(=O)NC1C (stereo not drawn) |  | inconclusive
20 | C=CCNC(=S)N1CCN(CCN=CC2=C(O)CC(c3ccc(Cl)cc3)CC2=O)CC1 (stereo not drawn) |  | inconclusive: 9.34%
38 | COc1ccc2[nH]c(CN3CCC(n4nccc4NC(=O)C4CC4)CC3)c(C)c2c1 |  | inconclusive: 2.09%
23 | Nc1c(C(=O)Nc2ccccc2)c2nc3ccccc3nc2n1-c1ccc(O)cc1 |  | inconclusive: -20.8%
5 | NC(=O)Nc1ccccc1C(=O)N1CCC(O)(c2ccc(Cl)cc2)CC1 |  | inconclusive: 0.322%
11 | O=C(/C=C/c1ccc(F)cc1)NC(=S)N1CCCCC1c1cccnc1 (stereo not drawn) |  | inconclusive: 20.7%
36 | CN(CCCC1CCCC1)C(=O)c1cc(COc2ccc(F)cc2F)on1 |  | inactive
18 | Cc1ccn2cc(C(=O)Nc3ccccc3N3CCOCC3)nc2c1 |  | inconclusive: 28.9%
8 | O=C(Nc1cc(=O)[nH]c2ncnn12)c1ccccc1Cl | inconclusive: 0.0046 µM [activator, full curve, poor fit] | 
15 | CC(=O)c1cccc(Nc2ncnc3ccc(Br)cc23)c1 |  | inconclusive: -21.2%
2 | COc1cccc(NC(=O)c2cnc(SC)nc2)c1 | inconclusive: 23.1 µM [falling, single point] | 
4 | Cc1nnc(N/N=C/c2ccc(Br)cc2)n1N |  | inconclusive: -77.9%
